Here are results for 2 molecules from article PMC11247735.

Results are given in words; binding and its absence hold for the method and conditions named. Binding seen in cells or lysates may run through a third protein. Some results given as binding are weak or reduced against the parent protein; the word gives no strength. Where a sequence is shown, tags or fusion partners need not be part of it.

Assay [1] has as its target T1, CD20 (Membrane Spanning 4-Domains A1) (human (endogenous in SU-DHL-2/R)) (UniProt P11836).
T1 sequence: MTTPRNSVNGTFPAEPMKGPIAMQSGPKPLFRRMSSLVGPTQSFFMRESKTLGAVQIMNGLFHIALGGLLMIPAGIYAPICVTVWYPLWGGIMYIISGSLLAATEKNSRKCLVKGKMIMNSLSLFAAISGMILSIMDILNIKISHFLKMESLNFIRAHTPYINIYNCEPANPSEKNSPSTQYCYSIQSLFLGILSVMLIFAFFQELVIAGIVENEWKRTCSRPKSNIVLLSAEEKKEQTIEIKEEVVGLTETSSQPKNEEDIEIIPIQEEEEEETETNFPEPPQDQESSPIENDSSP
In words: co-IP; endogenous proteins in SU-DHL-2/R cells; one partner immunoprecipitated with its antibody, the other detected by western blotting; control immunoprecipitation with IgG. A general note: A western blot detects proteins with antibodies after separation by electrophoresis.

Assay [2] concerns the target T2, Histone deacetylase 8 (human (endogenous in SU-DHL-2/R)) (UniProt Q9BY41).
T2 sequence: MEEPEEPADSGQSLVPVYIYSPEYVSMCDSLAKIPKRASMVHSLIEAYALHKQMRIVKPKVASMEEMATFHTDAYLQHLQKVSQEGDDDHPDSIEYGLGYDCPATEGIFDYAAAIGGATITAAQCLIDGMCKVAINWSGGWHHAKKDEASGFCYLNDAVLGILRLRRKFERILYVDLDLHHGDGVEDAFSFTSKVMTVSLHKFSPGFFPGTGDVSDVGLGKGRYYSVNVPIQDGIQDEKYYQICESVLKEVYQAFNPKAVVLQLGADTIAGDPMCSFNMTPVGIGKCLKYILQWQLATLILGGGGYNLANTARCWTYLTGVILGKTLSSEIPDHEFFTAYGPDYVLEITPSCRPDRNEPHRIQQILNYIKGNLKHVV
Described as above.

B1: Histone deacetylase 8 (enzyme, UniProt Q9BY41 1-377)
chain: T2 sequence
For the molecule B1, the binding result in assay [1] is listed as “binds”.

B2: CD20 (Membrane Spanning 4-Domains A1) (protein, UniProt P11836 1-297)
chain: T1 sequence
As to B2, the binding result in assay [2] is reported as “binds”.
